Experimental data taken from PubChem BioAssay AID2551 (National Center for Advancing Translational Sciences (NCATS), 2010).
Among all 310,000 compounds or so, about 17,000 (5.5%) were called active. The inconclusive results got no clear call from the source; some entries with a clear call stand among them for comparison. Calls follow the shape of the dose curve; as a rule, active = well fitted inhibition curve with a large enough effect; inconclusive = small, poorly fitted or top-dose-only effect, or effect the other way; inactive = no such curve, though single readings can be large or run the other way. Potencies beside an inconclusive call are fits to weak or partial responses and may not hold up.

By UniProt entry, the sequences of proteins in these tests, tags left out. Where a name states a change or a piece, a line headed by the entry shows the natural chain unless it says otherwise.
UniProt P51450: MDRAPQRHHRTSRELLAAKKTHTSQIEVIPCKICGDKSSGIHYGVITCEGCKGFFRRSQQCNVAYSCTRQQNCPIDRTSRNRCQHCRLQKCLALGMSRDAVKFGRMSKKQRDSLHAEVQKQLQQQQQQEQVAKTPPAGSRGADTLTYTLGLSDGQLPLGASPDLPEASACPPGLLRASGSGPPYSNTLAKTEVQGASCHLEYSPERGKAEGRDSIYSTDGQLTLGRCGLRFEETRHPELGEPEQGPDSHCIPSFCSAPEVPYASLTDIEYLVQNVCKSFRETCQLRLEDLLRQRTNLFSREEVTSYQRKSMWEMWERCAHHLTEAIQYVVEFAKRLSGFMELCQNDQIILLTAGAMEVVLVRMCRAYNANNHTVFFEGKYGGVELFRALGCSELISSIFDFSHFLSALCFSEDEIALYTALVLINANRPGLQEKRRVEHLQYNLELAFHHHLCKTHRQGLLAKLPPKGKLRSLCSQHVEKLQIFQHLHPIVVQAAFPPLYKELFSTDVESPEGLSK

molecular target: Nuclear receptor ROR-gamma (Mus musculus) (UniProt P51450); experiment: qHTS for inhibitors of ROR gamma transcriptional activity; details: Drosophila S2 Gal4-RORgamma UAS-luciferase reporter, 20 h; activity change, negative = inhibition: at 53.6 µM (top of the series); also: nearly all actives have a fitted effect of over 60% in size
In short: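 Drosophila S2 cells stably expressing Gal4-DBD/mouse RORγ fusion under metallothionein promoter plus UAS-luciferase; compound 1 h, then 700 uM CuSO4 induction for 20 h at ambient temperature; inhibition read as reduced luminescence.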
% is scaled to controls: 0 for no effect and ±100 for the full control effect; potency is read from the fitted curve at half-maximal effect.

SMILES	Potency	activity change, negative = inhibition
NS(=O)(=O)c1ccc(CCNC(=O)c2cc(-c3ccccn3)nc3ccc(Br)cc23)cc1	inactive	–
O=C(O)c1cnc(-c2ccccc2)nc1Sc1cccc(Cl)c1	inconclusive: 12.6 µM [activator, single point]	–
COc1ccc(CCNc2ccc(C(CC(N)=O)NC(=O)c3cc(OC)ccc3OC)cc2[N+](=O)[O-])cc1 (stereo unspecified)	inconclusive: 14.1 µM [activator, single point]	–
CC(C)(C)n1ncc2c(=O)n(Cc3c(F)cccc3Cl)cnc21	inconclusive: 25.1 µM [activator, single point]	–
Nc1nc(-c2ccc(Br)s2)c(Br)s1	inconclusive: 11.2 µM [activator, single point]	–
CSc1ccc(-c2nnn(Cc3ccccn3)n2)cc1	inconclusive: 2.24 µM [activator, full curve, poor fit]	–
N/C(=N\OC(=O)c1ccc(Cl)c([N+](=O)[O-])c1)c1ccccn1	inactive	–
C/C(CC(=O)NC12CC3CC(CC(C3)C1)C2)=N\NC(=O)c1cnccn1	active: 12.6 µM	–
Cc1sc(NC(=O)CSc2nnnn2C)c(C#N)c1C	inactive	–
Cc1onc(-c2ccccc2Cl)c1C(=O)NC(C)c1ccccc1 (stereo unspecified)	inactive	–
COc1ccc2c(c1)C(C1C(=O)CCCC1=O)c1ccccc1O2 (stereo unspecified)	inconclusive: 11.2 µM [activator, partial curve]	–
COc1ccc(NC(=O)c2nn(C)cc2[N+](=O)[O-])cc1	inactive	–
Nc1ccc2nc3c(=O)n(C4CCCCC4)c(=O)[nH]c3nc2c1	inactive	–
Cc1cc2[nH]c(=O)cc(-c3ccccc3)n2n1	active: 11.2 µM	–
Cn1nnnc1SCC1=C(C(=O)O)N2C(=O)C(NC(=O)C3CC3c3ccccc3)C2SC1 (stereo unspecified)	inactive	–
O=C1C(=C2CCCCC2)SC(=S)N1Cc1ccco1	active: 12.6 µM	–
CCN(CC)CCNC(=O)c1[nH]c2ccc(OCc3ccccc3)cc2c1C	active: 12.6 µM	–
COc1cccc(Cn2nnc3c(=O)[nH]c(C4CCCN(C(=O)c5ccccc5Cl)C4)nc32)c1 (stereo unspecified)	inconclusive: 15.8 µM [activator, single point]	–
COc1ccc(OC)c(NC(=O)C(=O)NNC(=O)C23CC4CC(CC(C4)C2)C3)c1	active: 2.51 µM	–
Cc1cccc(NC(=S)NC2CCCC2)n1	active: 0.355 µM	–
CN(C)c1ccc(/C=C2\C(=N)N3N=C(CC(=O)N4CCCCC4)SC3=NC2=O)cc1	inconclusive: 22.4 µM [activator, single point]	–
O=C(O)c1ccccc1NC(=O)c1cc2ccccc2oc1=O	active: 12.6 µM	–
Cc1ccc(CONC(=O)c2ccc(OC(F)F)cc2)cc1	inconclusive: 7.08 µM [activator, partial curve, poor fit]	–
COc1cc(C(=O)Nc2nnc(S(=O)(=O)N3CCCCCC3)s2)cc(OC)c1OC	inconclusive: 12.6 µM [inhibitor, single point]	–
CC(Oc1ccc(Cl)cc1Cl)C(=O)NN=C1CCN(C)CC1 (stereo unspecified)	active: 7.08 µM	–
CCN1C=CC2=C(C#N)C(N)C(C#N)(C#N)C(c3ccccc3C(F)(F)F)C2C1 (stereo unspecified)	inconclusive: 5.62 µM [inhibitor, single point]	–

Looked up above.
Potency with COc1cc(C(=O)Nc2nnc(S(=O)(=O)N3CCCCCC3)s2)cc(OC)c1OC reads inconclusive: 12.6 µM [inhibitor, single point]
Potency with COc1ccc(CCNc2ccc(C(CC(N)=O)NC(=O)c3cc(OC)ccc3OC)cc2[N+](=O)[O-])cc1 (stereo unspecified) reads inconclusive: 14.1 µM [activator, single point]
Potency with Cn1nnnc1SCC1=C(C(=O)O)N2C(=O)C(NC(=O)C3CC3c3ccccc3)C2SC1 (stereo unspecified) reads inactive
Potency with CSc1ccc(-c2nnn(Cc3ccccn3)n2)cc1 reads inconclusive: 2.24 µM [activator, full curve, poor fit]
Potency with COc1ccc(OC)c(NC(=O)C(=O)NNC(=O)C23CC4CC(CC(C4)C2)C3)c1 reads active: 2.51 µM
Potency with CC(Oc1ccc(Cl)cc1Cl)C(=O)NN=C1CCN(C)CC1 (stereo unspecified) reads active: 7.08 µM

Further results:

SMILES	Potency	activity change, negative = inhibition
CC(C)C1Cc2c(sc3[nH]c(=S)n(Cc4ccccc4)c(=O)c23)CO1 (stereo unspecified)	active: 0.447 µM	–
CCC(C)(C)n1nnnc1C(c1ccc(C)cc1)N1CCN(C(=O)c2ccco2)CC1 (stereo unspecified)	inconclusive: 0.447 µM [activator, single point]	–
COc1ccc(-c2cc(CNS(=O)(=O)c3ccccc3)on2)cc1	inconclusive: 25.1 µM [activator, single point]	–
CN1CCN(C2=C(Cl)C(=O)N(c3ccc(Cl)cc3)C2=O)CC1	inactive	–
Cc1ccc(C(=O)CSc2nnc(COc3cccc4cccnc34)o2)cc1	inconclusive: 31.6 µM [inhibitor, single point]	–
Cc1cccc(CNc2ncnc3ccc(-c4c(C)noc4C)cc23)c1	active: 2 µM	–
Fc1ccc(CNn2cnnc2SCc2ccc(F)cc2)cc1	inconclusive: 3.98 µM [activator, full curve]	–
CNC(=S)N=Nc1c(O)[nH]c2ccc(C(C)C)cc12	active: 3.98 µM	–
CC1CC(NC(=O)CC#N)CC(C)(C)C1 (stereo unspecified)	inactive	–
Cc1nc([N+](=O)[O-])c(Br)n1Cc1ccccc1	inconclusive: 12.6 µM [inhibitor, single point]	–
Cc1cc(N/N=C/c2ccccc2Br)nc2ccccc12	active: 0.562 µM	–
COc1ccc2c(c1)CCc1c(C(=O)NCCCn3ccnc3)noc1-2	inactive	–
CCc1nnc(NC(=O)CSc2nnc(-c3ccc(S(=O)(=O)N4CCCC4)cc3)n2CC)s1	inconclusive: 20 µM [activator, single point]	–
Cc1cc(C(=O)CCl)c(C)n1-c1c(C)n(C)n(-c2ccccc2)c1=O	inconclusive: 15.8 µM [inhibitor, partial curve, poor fit]	–
O=C(NC1CC1)c1nc(Cn2ccc([N+](=O)[O-])n2)no1	inconclusive: 0.1 µM [activator, full curve, poor fit]	–
CC1Cc2ccccc2N1C(=S)Nc1cccc(S(=O)(=O)N(C)C)c1 (stereo unspecified)	inconclusive: 11.2 µM [inhibitor, partial curve, poor fit]	–
CC(C)Sc1n[nH]c2nc3c(c(=O)n12)C1(CCCC1)Cc1ccccc1-3	active: 11.2 µM	–
CCCn1c2ccccc2c2cnn(CC(=O)OC)c(=O)c21	inactive	–
COc1cccc(-c2cc(N(C)Cc3ccco3)ncn2)c1	inconclusive: 35.5 µM [inhibitor, single point]	–
Cc1ccccc1Cn1ccc(=NCc2ccccc2)cc1	inconclusive: 11.2 µM [activator, partial curve]	–
Cc1ccc(S(=O)(=O)NCCSc2nnnn2-c2ccc(C(N)=O)cc2)cc1	inconclusive: 5.01 µM [activator, partial curve]	–
Cc1occc1C(=O)NCc1nc(-c2ccccc2)no1	inconclusive: 11.2 µM [activator, single point]	–
CSCC[C@@H]1NC(=O)C/C=C\[C@@H](C)COC(=O)[C@H](C)COC1=O	–	inactive: -21.2% [at 10 µM]
O=C(Nc1ccccc1)c1ccc(S(=O)(=O)N2CCCCC2)cc1	inconclusive: 0.02 µM [activator, full curve]	–
Cc1cccc(NC(=O)COc2ccc3oc4c(c3c2)CCCC4)n1	inconclusive: 12.6 µM [activator, single point]	–
CC(C)=CCc1c2c(c(O)c3c(=O)c(O)c(-c4ccccc4)oc13)C=CC(C)(C)O2	inactive	–

SMILES	Potency	activity change, negative = inhibition
Cc1ccc(C(C)C)c(OCC(=O)NN=C2CCCCCCC2)c1	inconclusive: 35.5 µM [inhibitor, single point]	–
CCCN1C(=O)/C(=C/c2ccc3c(c2)OCO3)NC1=S	active: 8.91 µM	–
COc1ccccc1OCCSc1nnnn1-c1ccc(C)cc1	inconclusive: 15.8 µM [activator, single point]	–
Cc1csc2ncnc(NC3CCN(Cc4ccccc4)CC3)c12	active: 2.51 µM	–
O=C(COC(=O)C(Cc1ccccc1)NC(=O)c1ccc(Cl)cc1)c1ccc(Cl)cc1 (stereo unspecified)	inconclusive: 25.1 µM [activator, single point]	–
Cc1[nH]c(=O)[nH]c(=O)c1/C=C/C(=O)O	inactive	–
O=c1ccsn1Cc1ccccc1	active: 2.24 µM	–
Cc1c(C(=O)c2ccc(F)cc2F)c2ccccn2c1CCC#N	inactive	–
COC(=O)c1cccc(NC(=S)NCc2ccco2)c1	inconclusive: 14.1 µM [inhibitor, single point]	–
O=Cc1cccn1-c1ccc(O)cc1	inconclusive: 35.5 µM [activator, single point]	–
S=c1[nH]nc(-c2cc(-c3ccco3)[nH]n2)n1-c1ccccc1Cl	inactive	–
CC(=O)Nc1nc(C)c(-c2csc(Nc3ccc(O)cc3)n2)s1	inconclusive: 2 µM [activator, partial curve, poor fit]	–
O=C(Nc1ccccc1)C1(c2ccccc2)CC1(Cl)Cl (stereo unspecified)	inconclusive: 35.5 µM [inhibitor, single point]	–
C=CCn1c(-c2csc3ccccc23)n[nH]c1=S	active: 3.55 µM	–
O=C(COC(=O)CCN1C(=O)/C(=C\C=C\c2ccccc2)SC1=S)Nc1cc(F)ccc1F	inconclusive: 3.55 µM [inhibitor, partial curve]	–
Cc1ccc(/C=N/Nc2nnc(Cl)c3ccccc23)cc1	active: 3.16 µM	–
O=C1CS/C(=N\NC(=O)c2ccccc2)N1	active: 2.82 µM	–
Cc1ccccc1NC(=S)NCCc1c[nH]c2ccccc12	active: 7.94 µM	–
COc1c(O)c(O)c2oc(-c3ccccc3)cc(=O)c2c1OC	inconclusive: 15.8 µM [inhibitor, single point]	–
COc1ccc(-c2noc(N3CCC(C(=O)Nc4ccc(OC)c(OC)c4)CC3)n2)cc1	inactive	–
O=c1oc2ccccc2cc1-c1csc(NN=C2CCCCC2)n1	inconclusive: 25.1 µM [inhibitor, single point]	–
COc1ccccc1CN1CC(C(=O)N2CCC(C(=O)c3ccccc3)CC2)CCC1=O (stereo unspecified)	inconclusive: 7.94 µM [activator, partial curve]	–
CN1/C(=C\C(=O)CSc2nnc(NCc3ccccc3)s2)C(C)(C)c2ccccc21	inconclusive: 15.8 µM [activator, single point]	–
COc1cc(SC)ccc1C(=O)NCCOc1ccc(F)cc1	inconclusive: 7.08 µM [activator, partial curve]	–
